## Library screening results

Protein sequences, listed by entry. Tags and fused reporters are not part of them.
UniProt E9BF75, entry or part of it: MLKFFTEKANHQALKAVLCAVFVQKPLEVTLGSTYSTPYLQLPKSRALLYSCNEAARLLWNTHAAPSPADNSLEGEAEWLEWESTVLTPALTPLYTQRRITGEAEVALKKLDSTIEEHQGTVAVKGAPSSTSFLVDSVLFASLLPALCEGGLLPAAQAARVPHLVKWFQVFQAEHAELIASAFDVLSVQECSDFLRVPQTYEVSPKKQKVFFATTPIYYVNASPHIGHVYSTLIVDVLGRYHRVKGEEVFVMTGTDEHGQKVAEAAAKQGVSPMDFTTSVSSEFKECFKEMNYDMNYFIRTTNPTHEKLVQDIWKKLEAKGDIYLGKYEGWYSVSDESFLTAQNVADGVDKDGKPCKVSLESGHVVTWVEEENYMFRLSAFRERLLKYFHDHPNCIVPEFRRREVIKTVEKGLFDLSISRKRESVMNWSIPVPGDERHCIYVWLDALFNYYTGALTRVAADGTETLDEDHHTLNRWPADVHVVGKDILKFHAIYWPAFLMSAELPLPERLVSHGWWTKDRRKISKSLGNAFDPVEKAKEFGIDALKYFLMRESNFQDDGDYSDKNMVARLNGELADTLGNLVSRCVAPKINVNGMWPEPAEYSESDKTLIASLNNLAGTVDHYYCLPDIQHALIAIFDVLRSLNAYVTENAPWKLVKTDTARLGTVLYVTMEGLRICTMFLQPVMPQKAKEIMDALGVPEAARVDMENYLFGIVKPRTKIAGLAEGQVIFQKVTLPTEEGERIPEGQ

A: 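Methionyl-tRNA synthetase (putative), Leishmania donovani (UniProt E9BF75). Primary screen of methionyl-tRNA synthetase; the read-out is not stated. The test concentration is not given. The values are filed as inhibition. Of about 68,000 compounds tested this way, about 24 (0.035%) reached 50% or more in at least one test.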
B: 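Assay on Mycobacterium tuberculosis, filed only as a heat shock assay from Cornell; the read-out is not stated. The concentration is filed as 10 mM, unlikely as a test dose, so the dose is not known. Direction is inferred from retests: higher values go with stronger inhibition. Of about 69,000 compounds tested this way, about 930 (1.4%) reached 50% or more in at least one test.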

All values are in %. How 0% and 100% were set is not recorded. Most values in the screen are low, and negative values occur. This is an unselected part of the compounds tested. A dash means the value is not listed here; it may have been measured.

SMILES	A	B
O=C(c1ccc(-n2cnnc2)nc1)N1CCCC(O)(CO)CC1 (centres undefined)	13.8	-5.378
O=C(Nc1cccnc1)[C@@H]1C[C@H]2OCC[C@H]2N(Cc2nccs2)C1	6.536	-
CCc1ccc(C(=O)Nc2ccc(CC3CC(=O)NC3=O)cc2)s1 (centres undefined)	14.38	9.296
O=C(CCNS(=O)(=O)c1ccccc1)NCc1ccoc1	10.73	0.9434
N[C@@H]1c2ccccc2C2(CCN(c3ncccc3C(F)(F)F)CC2)[C@H]1O	30.47	3.842
CCc1noc(C)c1C(=O)NCc1c(C)nn(CCOC)c1C	15.81	6.58
Cc1ccc(CN2Cc3c(cnn3C)C(COCC3CC3)C2)s1 (centres undefined)	5	-25.63
Cc1ccc(NC(=O)N2CCCC(O)C2)c(Br)c1 (centres undefined)	5.042	-24.18
COCCCN1CC2(CCN(C(=O)c3ccc(=O)n(C)c3)CC2)CC1=O	17.14	10.16
Cc1nn(C)c2ncc(NC(=O)N(C)Cc3cnn(C)c3)cc12	10.14	-18.4
[H][C@@]12CCC[C@@H](OCc3cccnc3)[C@]1([H])CN(Cc1cnn(C)c1)C2	-	16.54
COCc1noc(-c2ccc(N(C)Cc3nccs3)nc2)n1	20.74	4.039
COc1cccc2c1OCC(C(=O)NCc1nc3c(s1)CCCC3)C2 (centres undefined)	8.993	-8.621
CCc1nnc(CN(C)Cc2nc(-c3ccccc3Cl)oc2C)o1	12.58	6.881
CCn1ccnc1CNCC(c1ccc(C)s1)N1CCOCC1 (centres undefined)	9.89	-18.67
COc1c(C2CCCN2Cc2nc(C3CC3)no2)c(C)nn1C (centres undefined)	4.298	-29.05
O=C(N1CCCO1)[C@@]12CCO[C@@H]1CCN(Cc1cccs1)C2	7.945	-
CN(C)CCn1c([C@@H]2CCCO2)cc2cccnc21.Cl	-	-5.751
O=C(NCCNc1cnccn1)c1scnc1Cl	10.31	-7.799
[H][C@]12CC[C@]([H])(CN(Cc3cccnc3)C1)N(C(=O)Nc1ccc(F)cc1)C2	-	14.31
CN(c1ccc(C(C)(C)C)cc1)S(=O)(=O)c1cc(C(=O)O)cs1	9.804	1.581
[H][C@@]12CCN(C3CCOCC3)C[C@]1([H])O[C@H](C(=O)N(C)C)C2	-	-20.52
[H][C@@]12CN(C(=O)c3cnccn3)C[C@@]1([H])N(CC1CCCC1)C(=O)CO2	-	7.054
CC(c1cc(F)ccc1F)N(C)C(=O)NCc1ccnc(N(C)C)c1 (centres undefined)	20.48	-23.14
O=C(c1ccco1)N1CC[C@@H]2[C@H]1CCC(=O)N2c1ccccc1	5.495	-
Cn1cnc2ccc(NC(=O)CCCn3cccn3)cc2c1=O	8.401	5.614
COc1ccc2[nH]cc(C(=O)N3CC[C@H](CO)[C@@H](O)C3)c(=O)c2c1	8.242	-0.5763
Cc1ncsc1CN1C[C@H](C(=O)NCC2CC2)[C@@H]2CCO[C@@H]2C1	11.88	-
Cc1ccc(CNC(c2cccc(F)c2)c2nccn2C)o1 (centres undefined)	9.028	-
CN(C)Cc1noc2c1CN(Cc1ccc[nH]1)CC2	15.85	33.25
COC(=O)[C@H](C)NC(=O)Cc1c(C)nc2cc(=O)[nH]n2c1C	7.102	13.49
O=C(O)C1(Oc2ccc3ccccc3c2)CCN(c2ccncc2)CC1	10.03	-27.28
Cc1cnc(N2CCC3(CC2)CC3C(=O)NCC2CC2)nc1 (centres undefined)	5.109	-22.28
CC(C)c1nnc2n1CCN(C(=O)c1cccc(OCC(N)=O)c1)C2	3.093	17.14
[H][C@@]12CCN(C(=O)c3cccn3C)C[C@@]1([H])O[C@H](c1nc(C)cs1)C2	-	17.53
O=C(O)C(F)(F)F.O=C(O)C(F)(F)F.[H][C@@]12OCCN(c3cc(OC)ncn3)[C@@]1([H])CC[C@@H]2Oc1cccnc1	-	-18.54
O=C(NCC1CC1)[C@@H]1CCO[C@@H]2CCN(Cc3ccsc3)C[C@H]21	9.453	-
O=C(O)C(F)(F)F.O=C(O)C(F)(F)F.[H][C@@]12OCCN(Cc3nccs3)[C@@]1([H])CC[C@H]2OCCN1CCCC1	-	10.29
COc1cccc2c1OCC(C(=O)NCCc1nnc(N)s1)C2 (centres undefined)	13.31	-23.81
CCn1cc(CN2C[C@@H]3CCCN3C[C@H]2CCSC)cn1	15.53	-
N#Cc1cccc(N2CC3(CCN(C(=O)c4ccnnc4)C3)CC2=O)c1 (centres undefined)	8.497	-14.79
Cc1nnc(NC(=O)CN2CCc3c(nc(C(C)C)n3C)C2)s1	10.15	-3.747
Cc1cc(C(=O)N2CCC3(CC2)C(=O)N(C)CCN3CC2CC2)c(C)o1	0	-
COCCNC(=O)NCc1cc(-c2cccs2)n(C2CCCC2)n1	14.36	5.695
[H][C@]12CN(C(=O)c3ccoc3C)C[C@@]1([H])OCCN(S(C)(=O)=O)C2	-	-29.63
[H][C@@]12C[C@@H](Oc3cccnc3)CN1CCN(C(=O)c1cnccn1)C2	-	-35.39
Cc1ccoc1C(=O)N1CCNCC1C(=O)NCc1ccncc1 (centres undefined)	3.136	-13.76
Cc1cc(C)n(C2CCCN(C(=O)CCOc3cccc(F)c3)C2)n1 (centres undefined)	16.94	2.226

Some entries from above, unchanged:

* CN(c1ccc(C(C)(C)C)cc1)S(=O)(=O)c1cc(C(=O)O)cs1 : A: 9.804%; B: 1.581%
* Cc1nn(C)c2ncc(NC(=O)N(C)Cc3cnn(C)c3)cc12 : A: 10.14%; B: -18.4%
* O=C(O)C(F)(F)F.O=C(O)C(F)(F)F.[H][C@@]12OCCN(Cc3nccs3)[C@@]1([H])CC[C@H]2OCCN1CCCC1 : B: 10.29%
* CN(C)CCn1c([C@@H]2CCCO2)cc2cccnc21.Cl : B: -5.751%
* COCCNC(=O)NCc1cc(-c2cccs2)n(C2CCCC2)n1 : A: 14.36%; B: 5.695%

From ChEMBL document CHEMBL3988442, “University of Dundee, Small-Polar-MMV Screening Library” (2021).